{
  "sequences": {"note": "By UniProt entry, the sequences of proteins in these tests, tags left out.", "UniProt O15550": "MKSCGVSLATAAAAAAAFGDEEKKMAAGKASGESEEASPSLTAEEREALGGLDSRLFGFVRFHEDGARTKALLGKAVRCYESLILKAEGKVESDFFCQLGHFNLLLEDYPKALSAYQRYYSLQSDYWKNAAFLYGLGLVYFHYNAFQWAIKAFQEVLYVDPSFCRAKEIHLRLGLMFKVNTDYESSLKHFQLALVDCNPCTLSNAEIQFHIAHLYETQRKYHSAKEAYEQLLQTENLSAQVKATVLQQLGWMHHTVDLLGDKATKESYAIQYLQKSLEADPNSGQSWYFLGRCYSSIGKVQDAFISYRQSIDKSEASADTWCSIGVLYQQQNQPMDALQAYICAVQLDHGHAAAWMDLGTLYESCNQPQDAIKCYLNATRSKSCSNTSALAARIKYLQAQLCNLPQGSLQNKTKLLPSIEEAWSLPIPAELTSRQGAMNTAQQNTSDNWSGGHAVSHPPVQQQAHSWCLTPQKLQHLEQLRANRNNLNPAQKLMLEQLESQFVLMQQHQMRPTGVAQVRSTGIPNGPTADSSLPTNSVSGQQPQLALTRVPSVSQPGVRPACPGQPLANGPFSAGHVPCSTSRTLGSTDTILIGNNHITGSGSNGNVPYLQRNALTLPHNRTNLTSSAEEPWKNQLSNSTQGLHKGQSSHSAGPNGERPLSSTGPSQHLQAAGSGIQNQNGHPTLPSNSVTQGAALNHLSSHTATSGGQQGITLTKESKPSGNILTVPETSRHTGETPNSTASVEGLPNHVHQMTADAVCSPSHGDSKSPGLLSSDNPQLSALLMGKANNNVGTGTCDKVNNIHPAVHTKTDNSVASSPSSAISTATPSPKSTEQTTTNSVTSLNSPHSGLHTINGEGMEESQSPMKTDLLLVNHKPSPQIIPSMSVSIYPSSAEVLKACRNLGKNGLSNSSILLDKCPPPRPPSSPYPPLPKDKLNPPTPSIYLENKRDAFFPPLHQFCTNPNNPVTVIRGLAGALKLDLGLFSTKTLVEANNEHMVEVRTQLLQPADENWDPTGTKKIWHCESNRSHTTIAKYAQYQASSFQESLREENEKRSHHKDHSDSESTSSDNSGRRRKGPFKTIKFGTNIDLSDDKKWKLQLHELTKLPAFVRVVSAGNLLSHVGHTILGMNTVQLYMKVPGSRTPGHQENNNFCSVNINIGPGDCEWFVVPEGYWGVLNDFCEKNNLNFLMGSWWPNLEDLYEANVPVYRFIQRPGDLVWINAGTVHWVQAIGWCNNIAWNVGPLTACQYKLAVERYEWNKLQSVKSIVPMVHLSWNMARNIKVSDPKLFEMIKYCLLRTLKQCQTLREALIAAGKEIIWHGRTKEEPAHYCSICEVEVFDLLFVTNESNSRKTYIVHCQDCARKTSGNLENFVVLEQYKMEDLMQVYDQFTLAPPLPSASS", "UniProt Q9Y508": "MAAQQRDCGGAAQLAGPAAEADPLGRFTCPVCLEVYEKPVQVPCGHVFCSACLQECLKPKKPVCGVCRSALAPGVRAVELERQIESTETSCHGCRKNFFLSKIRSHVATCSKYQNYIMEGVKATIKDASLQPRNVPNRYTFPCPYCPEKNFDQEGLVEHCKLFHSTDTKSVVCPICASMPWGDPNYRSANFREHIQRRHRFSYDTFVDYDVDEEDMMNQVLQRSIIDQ"},
  "source": "paper PMC9253056",
  "molecular_target": "UTX (ubiquitously transcribed tetratricopeptide repeat on chromosome X), overexpressed (human) (UniProt O15550)",
  "assay": "affinity purification with mass spectrometry; immunoprecipitation from 293 T cells transfected with UTX, followed by mass spectrometric analysis",
  "note": "These are yes or no findings as the source states them, for the method shown. In cells and extracts the contact can be indirect. Here binding means that the protein was enriched with, or labelled near, the bait; the list need not be complete.",
  "data": [
    {"substance": "RNF114, found by mass spectrometry in the UTX immunoprecipitate of 293 T cells (from UniProt Q9Y508 1-228)", "values": [
      {"measurement": "binding", "value": "binds"}
    ]}
  ]
}
